67 compounds from the supplement of paper PMC8104966 can be followed below.

Molecules are shown by their SMILES. The list shows a part of the results. Repeats in this data set agree poorly, so a single value says little.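 U2OS cells expressing ACE2 were combined with U2OS cells expressing full-length spike, and imaging quantified fusion as the fraction of nuclei displaying both cell types' fluorescent markers. Non-toxic compounds with a fusion z-score under -3, i.e., over three standard deviations below the plate's DMSO wells, are called inhibitory hits.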

This assay deals with U2OS ACE2 x SARS-CoV-2 spike co-culture. The assay can be described thus: cell-cell fusion (fraction fused) z-score vs plate DMSO control; higher = more fusion. The settings on record: 30 µM; 5 h; toxicity class: non-toxic, passed QC.
For `COc1ccc(-c2cc(=O)c3c(O)cc(OC)cc3o2)cc1`, the “cell-cell fusion (z-score)” value is inactive: -0.214. With `CC(=O)c1ccc(S(=O)(=O)NC(=O)NC2CCCCC2)cc1` [Acetohexamide], the “cell-cell fusion (z-score)” value is inactive: 2.33.

For the compound `CC(=O)c1ccc(S(=O)(=O)NC(=O)NC2CCCCC2)cc1`, the “cell-cell fusion (z-score)” value was inactive: -0.295.

With `CCC[C@@H]1C[C@@H](C(=O)N[C@@H]([C@H]2O[C@H](SC)[C@H](OP(=O)(O)O)[C@@H](O)[C@H]2O)[C@H](C)Cl)N(C)C1` [Clindamycin phosphate], the “cell-cell fusion (z-score)” value is inactive: 3.3. The same measure for `CCCCCCCc1ccc(CCc2cccc(O)c2C(=O)O)cc1`: inactive: 1.92. To `Cl.c1ccc2c(c1)CCC[C@H]2Nc1nc2ccccc2[nH]1` [NS8593 hydrochloride] belongs inactive: -2.17; to `CN1CCN(C2=Nc3cc(Cl)ccc3Nc3ccccc32)CC1` [Clozapine], inactive: 2.09; to `CN1CCN(C2=Nc3cc(Cl)ccc3Nc3ccccc32)CC1`, inactive: 2.3. Regarding `C=C(C)[C@@H]1[C@H]2OC(=O)[C@@H]1[C@]1(O)C[C@H]3O[C@]34C(=O)O[C@H]2[C@]14C`, the “cell-cell fusion (z-score)” value is inactive: 0.297. The same measure for `COc1ccc(-c2cc(=O)c3c(OC)c(OC)c(OC)c(OC)c3o2)cc1OC`: inactive: 1.8. On to `C[C@]12CCC(=O)C=C1CC[C@@H]1[C@@H]2[C@@H](O)C[C@@]2(C)[C@H]1CC[C@]2(O)C(=O)CO` [Hydrocortisone], for which the “cell-cell fusion (z-score)” value is inactive: 1.67. As for `O=C1N(c2ccccc2)c2ccccc2C1(Cc1ccncc1)Cc1ccncc1` [Linopirdine], the “cell-cell fusion (z-score)” value is inactive: 3.28.

Consider `CN1CC(=O)N2[C@H](c3ccc4c(c3)OCO4)c3[nH]c4ccccc4c3C[C@@H]2C1=O`, for which the “cell-cell fusion (z-score)” value is inactive: 3.15.

Take `CN1[C@@H]2CC[C@H]1C[C@@H](OC(c1ccccc1)c1ccccc1)C2.CS(=O)(=O)O` [Benztropine mesylate]: the “cell-cell fusion (z-score)” value is inactive: 4.23.

For the compound `CCCNC(=O)NS(=O)(=O)c1ccc(Cl)cc1`, the “cell-cell fusion (z-score)” value is inactive: 1.44. The same measure for `CCCNC(=O)NS(=O)(=O)c1ccc(Cl)cc1` [Chlorpropamide]: inactive: 1.02; for `COC(=O)[C@@]1(C)CCC[C@]2(C)c3ccc(O)c(C(C)C)c3CCC12` (some centres not stated): inactive: 2.4. Take `CO/N=C(/C(=O)NC1C(=O)N2C(C(=O)[O-])=C(COC(N)=O)CSC12)c1ccco1.[Na+]` (configuration not stated): the “cell-cell fusion (z-score)” value is inactive: 2.63. The same measure for `Cc1nc2c(OCc3ccccc3)cccn2c1CC#N`: inactive: 0.00565. As for `CN(C)Cc1c(C(=O)NCCOc2ccc(C(=O)NO)cc2)oc2ccccc12`, the “cell-cell fusion (z-score)” value is inactive: 2.15. To `Nc1ncnc2c1ncn2[C@@H]1O[C@H](CO)[C@@H](O)[C@@H]1O` belongs inactive: 1.4. To `N[C@@H](Cc1ccc(N(CCCl)CCCl)cc1)C(=O)O` belongs inactive: 0.471; to `COC(=O)N[C@H](C(=O)N1CCC[C@H]1c1ncc(-c2ccc3c(c2)O[C@@H](c2ccccc2)n2c-3cc3cc(-c4cnc([C@@H]5CCCN5C(=O)[C@@H](NC(=O)OC)C(C)C)[nH]4)ccc32)[nH]1)C(C)C` [Elbasvir], inactive: 2.2; to `c1ccc(-c2nn3c(c2-c2ccnc4cc(OCCN5CCOCC5)ccc24)CCC3)nc1`, inactive: 0.447. To `O=C(C1CCCCC1)N1CC(=O)N2CCc3ccccc3C2C1` (configuration not stated) belongs inactive: 0.62; to `CC(COc1ccccc1)N(CCCl)Cc1ccccc1.Cl` (configuration not stated) [Phenoxybenzamine hydrochloride], inactive: -0.506; to `C[C@@H]1O[C@@H]1P(=O)(O)O.NC(CO)(CO)CO` [Fosfomycin Tromethamine], inactive: 3.04. For the compound `O=C([O-])CS.[Na+]`, the “cell-cell fusion (z-score)” value was inactive: 2.29.

As to `COC(=O)C[C@H]1C2(C)CC34OC5(C)O[C@@]6([C@H](OC(C)=O)C(OC(C)=O)[C@]7(C)C(/C(=C(/O)C(C)C)C(=O)O[C@H]7c7ccoc7)[C@@]6(O5)[C@H](OC(C)=O)[C@@]3(O)C2OC(=O)C(C)C)[C@]14C` (some centres not stated), the “cell-cell fusion (z-score)” value was inactive: 3.04.

Regarding `COc1ccc(CC2c3cc(OC)c(OC)cc3CC[N+]2(C)CCC(=O)OCCCCCOC(=O)CC[N+]2(C)CCc3cc(OC)c(OC)cc3C2Cc2ccc(OC)c(OC)c2)cc1OC.O=S(=O)([O-])c1ccccc1.O=S(=O)([O-])c1ccccc1` (configuration not stated), the “cell-cell fusion (z-score)” value was inactive: 1.03. The same measure for `CCC1(C)CC(=O)NC1=O` (configuration not stated): inactive: 1.84. As to `CCC1(C)CC(=O)NC1=O` (configuration not stated) [Ethosuximide], the “cell-cell fusion (z-score)” value was inactive: 2.6.

Take `COC1=C(CC=C(C)C)C(=O)c2ccccc2C1=O`: the “cell-cell fusion (z-score)” value was active: -3.39.

As to `NC1CONC1=O` (racemic) [DL-Cycloserine], the “cell-cell fusion (z-score)” value is inactive: 1.91. The same measure for `C[C@@H]1C(=O)N=C2Nc3cccc(Cl)c3CN21` [Quazinone]: inactive: 2.15; for `O=C(O)[C@H]1/C(=C/CO)O[C@@H]2CC(=O)N21.[Li]`: inactive: 4.47; for `O=C(NCc1cccc(O)c1)Nc1nc(-c2ccncc2)cs1`: inactive: 1.02. The same measure for `Cc1nnc(C(=O)NC(C)(C)c2nc(C(=O)NCc3ccc(F)cc3)c(O)c(=O)n2C)o1` [Raltegravir]: inactive: 1.96. The same measure for `Clc1ccc(COC(Cn2ccnc2)c2ccc(Cl)cc2Cl)cc1.O=[N+]([O-])O` (configuration not stated): inactive: 2.04. For `O=C(Nc1ccccc1C(=O)NC1CCCCNC1=O)c1cc2ccccc2s1` (configuration not stated), the “cell-cell fusion (z-score)” value is inactive: 1.04. To `Oc1ccccc1O` [Pyrocatechol] belongs inactive: -0.169.

Turning to `CC(C(=O)O)c1ccc2c(c1)Cc1cccnc1O2` (configuration not stated), the “cell-cell fusion (z-score)” value was inactive: 3.11. As to `CCC(NC(C)C)C(O)c1ccc(O)c(O)c1.CS(=O)(=O)O` (configuration not stated) [Isotharine mesylate], the “cell-cell fusion (z-score)” value is inactive: 1.07. In the case of `Cl.OC(CCN1CCCC1)(c1ccccc1)C1CCCCC1` (configuration not stated), the “cell-cell fusion (z-score)” value is inactive: -0.279. On to `COc1ccc2[n-]c(S(=O)Cc3ncc(C)c(OC)c3C)nc2c1.[Mg+]` (configuration not stated), for which the “cell-cell fusion (z-score)” value is inactive: 1.96. With `CC(C)NCC(O)c1ccc(O)c(O)c1.Cl` (racemic) [(±)-Isoproterenol hydrochloride], the “cell-cell fusion (z-score)” value is inactive: 0.95. For `C[C@@H]1[C@H](O)[C@@H](C)/C=C/C=C/C=C/C=C/C=C/C=C/C=C/[C@H](O[C@@H]2O[C@H](C)[C@@H](O)[C@H](N)[C@@H]2O)C[C@@H]2O[C@](O)(C[C@@H](O)C[C@@H](O)[C@H](O)CC[C@@H](O)C[C@@H](O)CC(=O)O[C@H]1C)C[C@H](O)[C@H]2C(=O)O` [Amphotericin B], the “cell-cell fusion (z-score)” value was inactive: -1.72. On to `CCc1cccc2c3c([nH]c12)C(CC)(CC(=O)O)OCC3` (configuration not stated) [Etodolac], for which the “cell-cell fusion (z-score)” value is inactive: 1.61.

Regarding `O=C(CCCl)NCCc1ccccc1`, the “cell-cell fusion (z-score)” value is inactive: 3.5.

`C[N+](C)(C)CC(=O)[O-]` [Betaine]: the “cell-cell fusion (z-score)” value is inactive: 1.95. The same measure for `O=C(O)c1cccnc1Nc1cccc(C(F)(F)F)c1` [Niflumic acid]: inactive: 1.22; for `CC(=O)c1c(O)c(C)c(O)c2c1OC1=CC(=O)C(C(C)=O)C(=O)C12C` (configuration not stated): inactive: 2.44; for `Cc1cccc(C)c1NC1=NCCCS1`: inactive: -0.0217. To `O=C1c2c(O)cccc2Cc2cccc(O)c21` belongs inactive: 1.05; to `CCC1(c2ccc(N)cc2)CCC(=O)NC1=O` (configuration not stated), inactive: 0.357.

With `COc1ccc(S(=O)(=O)N(C(C)=O)c2ccccc2/C=C/c2cc[n+]([O-])cc2)cc1`, the “cell-cell fusion (z-score)” value was inactive: 0.457.

For `COc1c2c(cc3occ(-c4ccc5c(c4)OCO5)c(=O)c13)OC(C)(C)C=C2`, the “cell-cell fusion (z-score)” value was inactive: 2.07. The same measure for `CCC(C)C(=O)O[C@@H]1C[C@@]2(C)[C@H](c3ccoc3)OC(=O)CC23OC2(C)OC34[C@H](OC(=O)C(C)C)[C@@]3(O)[C@@H](OC(=O)C5(C)OC5C)[C@@]5(C)C[C@]3(O)[C@@](C)([C@H]5CC(=O)OC)C14O2` (some centres not stated): inactive: 3.3; for `CC(=O)[C@@]12O[C@@H]1CC1C3CC=C4C[C@@H](O)CC[C@]4(C)C3CC[C@@]12C` (some centres not stated): inactive: 2.43; for `O=C1N=C(O)NC1(c1ccccc1)c1ccccc1` [5,5-Diphenylhydantoin]: inactive: 3.39.

Regarding `Nc1ncnc2c1ncn2[C@@H]1O[C@H](COP(=O)([O-])OP(=O)([O-])OP(=O)([O-])OP(=O)(O)OC[C@@H]2O[C@H](n3cnc4c(N)ncnc43)C(O)[C@@H]2O)[C@H](O)C1O.[NH4+].[NH4+].[NH4+]` (some centres not stated) [P1,P4-Di(adenosine-5')tetraphosphate triammonium], the “cell-cell fusion (z-score)” value is inactive: -1.39. For `CN1CCN(C2CCN(C(=O)Nc3cc(Oc4ccc(NC(=O)C5(C(=O)Nc6ccc(F)cc6)CC5)c(F)c4)ccn3)CC2)CC1` [Golvatinib (E7050)], the “cell-cell fusion (z-score)” value was inactive: 2.33. Turning to `Br.CCCN1CCc2cc(O)cc3c2[C@H]1Cc1ccc(O)c(O)c1-3` [R(-)-2,10,11-Trihydroxy-N-propylnoraporphine hydrobromide], the “cell-cell fusion (z-score)” value was inactive: -2.57.

Turning to `NC(=O)C1=CN(C2OC(COP(=O)([O-])OP(=O)([O-])OC[C@H]3O[C@@H](n4cnc5c(N)ncnc54)C(OP(=O)([O-])[O-])[C@H]3O)C(O)C2O)C=CC1.[Na+].[Na+].[Na+].[Na+]` (some centres not stated) [NADPH tetrasodium], the “cell-cell fusion (z-score)” value is inactive: 1.38. Regarding `COc1ccc(OC)c(C(O)C(C)N)c1.Cl` (configuration not stated) [Methoxamine hydrochloride], the “cell-cell fusion (z-score)” value is inactive: 3.39. `Cl.N[C@@H]1CCCCN(c2c(F)cc3c(=O)c(C(=O)O)cn(C4CC4)c3c2Cl)C1` [Besifloxacin HCl]: the “cell-cell fusion (z-score)” value is inactive: 2.47.

As to `Cc1cccc(Nc2ccccc2C(=O)O)c1C` [Mefenamic acid], the “cell-cell fusion (z-score)” value is inactive: 2.61.
